The test system of the test is BDF1 mice, P388 leukemia ip, median survival T/C. In words: NCI In Vivo Anticancer Drug Screen. Data for tumor model P388 Leukemia (intraperitoneal) in B6D2F1 (BDF1) mice. The following applies: T/C endpoint: median survival time, higher T/C = longer survival. In outline:
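Reported as T/C, where T is the survival measurement in dosed animals and C the same measurement in vehicle controls.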

Where [1] appears, read: dose: 100.0 mg/kg/injection, schedule: Q01DX009 (ip), vehicle: saline.

The list shows only some results of the screen, not a fair sample: it is rich in T/C values a quarter to a half above the control, in often repeated tests (any T/C) and in doses without a T/C. Other doses and runs of a compound stand elsewhere. T/C is the treated group as % of the vehicle group. Some doses have a count of surviving animals in place of a T/C: the source holds a T/C of zero for them, seemingly a mark for toxic or unscored doses. Some doses without a T/C left all or most animals alive at the check, yet need not have been tolerated: survival well below the control is almost never listed, so the zero probably covers shortened survival too. Counts of survivors are from the toxicity check (mostly the fifth day) where no day follows; animals may have died later. Schedules are NCI's codes, taken here to give the interval after Q, in days (D) or hours (H), and the number of doses after X. Where survival is the endpoint, the PubChem record calls one and a half times the control and up active, and a quarter to a half above the control has no call in these data; cut-offs in other NCI protocols can differ. Some doses were run more than once; the results are listed from low to high.

Consider `CCN(CC)CCOC(=O)c1ccccc1Nc1cccc(C)c1`, for which the survivor count under setting [1] is listed as 3 of 6 and the survivor count (dose: 350.0 mg/kg/injection, schedule: Q04DX003 (ip), vehicle: saline) is on record as 2 of 6.
`COC(=O)C[C@](O)(CCCC(C)(C)O)C(=O)O[C@@H]1C(OC)=C[C@]23CCCN2CCc2cc4c(cc2[C@H]13)OCO4`: the T/C was 140 % of control (dose: 0.25 mg/kg/injection, schedule: Q03HX008 (ip), vehicle: acid diluted with saline); 125 % of control (dose: 0.5 mg/kg/injection, schedule: Q01DX009 (sc), vehicle: acid diluted with saline); 140 % of control (dose: 0.5 mg/kg/injection, schedule: Q03HX008 (ip), vehicle: acid diluted with saline); 127 and 128 % of control (dose: 0.72 mg/kg/injection, schedule: Q04DX003 (ip), vehicle: acid diluted with saline); 140 % of control (dose: 1.0 mg/kg/injection, schedule: Q01DX009 (sc), vehicle: saline); 130 % of control (dose: 1.0 mg/kg/injection, schedule: Q04DX003 (ip), vehicle: acid diluted with saline). In addition, the T/C (dose: 1.0 mg/kg/injection, schedule: Q04DX003 (ip), vehicle: saline) is 147 % of control; the T/C (dose: 1.2 mg/kg/injection, schedule: Q04DX003 (ip), vehicle: acid diluted with saline) is 142 and 147 % of control; the T/C (dose: 2.0 mg/kg/injection, schedule: Q01DX009 (oral), vehicle: acid diluted with saline) was 140 % of control; the T/C (dose: 2.0 mg/kg/injection, schedule: Q08DX002 (ip), vehicle: acid diluted with saline) is 130 % of control; the T/C (dose: 4.0 mg/kg/injection, schedule: Q08DX002 (ip), vehicle: acid diluted with saline) was 130 % of control; the T/C (dose: 8.0 mg/kg/injection, schedule: Q01DX001 (ip), vehicle: acid diluted with saline) was 130 % of control. Besides, the survivor count is listed as 6 of 6 (dose: 2.0 mg/kg/injection, schedule: Q01DX009 (ip), vehicle: water); 1 of 10 (dose: 2.0 mg/kg/injection, schedule: Q01DX009 (oral), vehicle: saline); 6 of 6 (dose: 2.0 mg/kg/injection, schedule: Q01DX010 (ip), vehicle: saline); 0 of 10 (dose: 2.0 mg/kg/injection, schedule: Q03HX008 (ip), vehicle: acid diluted with saline); 2 of 10 (dose: 2.0 mg/kg/injection, schedule: Q03HX016 (ip), vehicle: acid diluted with saline); 7 of 8 (dose: 3.33 mg/kg/injection, schedule: Q04DX003 (ip), vehicle: acid diluted with saline). Besides, the survivor count (dose: 4.0 mg/kg/injection, schedule: Q01DX009 (ip), vehicle: acid diluted with saline) is 9 of 10; the survivor count (dose: 4.0 mg/kg/injection, schedule: Q01DX009 (ip), vehicle: saline) was 7 of 10; the survivor count (dose: 4.0 mg/kg/injection, schedule: Q01DX009 (oral), vehicle: acid diluted with saline) was 7 of 10; the survivor count (dose: 4.0 mg/kg/injection, schedule: Q01DX009 (oral), vehicle: saline) is given as 1 of 10; the survivor count (dose: 4.0 mg/kg/injection, schedule: Q01DX009 (sc), vehicle: acid diluted with saline) is listed as 10 of 10; the survivor count (dose: 4.0 mg/kg/injection, schedule: Q01DX010 (ip), vehicle: saline) is 1 of 6. In addition, the survivor count is, setting by setting: (dose: 4.0 mg/kg/injection, schedule: Q04DX003 (ip), vehicle: saline) 8 of 8; (dose: 8.0 mg/kg/injection, schedule: Q01DX001 (iv), vehicle: acid diluted with saline) 4 of 10; (dose: 8.0 mg/kg/injection, schedule: Q01DX001 (oral), vehicle: acid diluted with saline) 6 of 10; (dose: 8.0 mg/kg/injection, schedule: Q01DX001 (sc), vehicle: acid diluted with saline) 6 of 10; (dose: 8.0 mg/kg/injection, schedule: Q01DX009 (ip), vehicle: acid diluted with saline) 1 of 10; (dose: 8.0 mg/kg/injection, schedule: Q01DX009 (ip), vehicle: saline) 0 of 10. Further, the survivor count (dose: 8.0 mg/kg/injection, schedule: Q01DX009 (oral), vehicle: acid diluted with saline) is listed as 1 of 10; the survivor count (dose: 8.0 mg/kg/injection, schedule: Q01DX009 (oral), vehicle: saline) is reported as 0 of 10; the survivor count (dose: 8.0 mg/kg/injection, schedule: Q01DX009 (sc), vehicle: saline) is 2 of 10; the survivor count (dose: 8.0 mg/kg/injection, schedule: Q04DX003 (ip), vehicle: acid diluted with saline) is given as 8 of 10; the survivor count (dose: 8.0 mg/kg/injection, schedule: Q04DX003 (ip), vehicle: saline) was 0 of 8; the survivor count (dose: 8.0 mg/kg/injection, schedule: Q08DX002 (ip), vehicle: acid diluted with saline) is given as 5 of 10. Besides, the survivor count runs as follows: (dose: 11.0 mg/kg/injection, schedule: Q01DX009 (ip), vehicle: acetone) 0 of 6; (dose: 16.0 mg/kg/injection, schedule: Q01DX001 (ip), vehicle: acid diluted with saline) 2 of 10; (dose: 16.0 mg/kg/injection, schedule: Q01DX001 (iv), vehicle: acid diluted with saline) 0 of 10; (dose: 16.0 mg/kg/injection, schedule: Q01DX001 (oral), vehicle: acid diluted with saline) 2 of 10; (dose: 16.0 mg/kg/injection, schedule: Q01DX001 (sc), vehicle: acid diluted with saline) 0 of 10; (dose: 16.0 mg/kg/injection, schedule: Q04DX003 (ip), vehicle: saline) 8 of 8. Also, the survivor count (dose: 16.0 mg/kg/injection, schedule: Q08DX002 (ip), vehicle: acid diluted with saline) is 2 of 10; the survivor count (dose: 18.0 mg/kg/injection, schedule: Q01DX009 (ip), vehicle: acetone) was 0 of 6; the survivor count (dose: 27.0 mg/kg/injection, schedule: Q01DX009 (ip), vehicle: acetone) is listed as 0 of 6; the survivor count (dose: 32.0 mg/kg/injection, schedule: Q01DX001 (oral), vehicle: acid diluted with saline) is listed as 0 of 10; the survivor count (dose: 1000.0 micrograms/kg/injection, schedule: Q03HX024 (ip), vehicle: acid diluted with saline) is 8 of 10; the survivor count (dose: 2000.0 micrograms/kg/injection, schedule: Q03HX024 (ip), vehicle: acid diluted with saline) is recorded as 0 of 10.
On to `Cc1ccc([P+](CCN2C(=O)c3ccccc3C2=O)(c2ccc(C)cc2)c2ccc(C)cc2)cc1`, for which the T/C (dose: 0.78 mg/kg/injection, schedule: Q01DX009 (ip), vehicle: water) was 125 % of control; the T/C (dose: 1.56 mg/kg/injection, schedule: Q01DX009 (ip), vehicle: water) is 129 % of control; the T/C (dose: 3.13 mg/kg/injection, schedule: Q01DX009 (ip), vehicle: water) is 134 % of control; the T/C (dose: 6.25 mg/kg/injection, schedule: Q01DX009 (ip), vehicle: water) was 134 % of control. The survivor count is, setting by setting: (dose: 12.5 mg/kg/injection, schedule: Q01DX009 (ip), vehicle: water) 0 of 6; (dose: 25.0 mg/kg/injection, schedule: Q01DX009 (ip), vehicle: water) 0 of 6.
As for `CC(C)(C)c1cc(I)c(O)c(CN)c1`, the survivor count under setting [1] was 3 of 6.
Regarding `O=C(/C=C/c1ccncc1)c1ccccc1`, the survivor count (dose: 400.0 mg/kg/injection, schedule: Q01DX001 (ip), vehicle: saline with Tween-80) was 2 of 6.
Take `ClCC(Br)CBr` (stereo unspecified) (tested in a mixture with another compound): the survivor count is listed as 0 of 6 (dose: 50.0 mg/kg/injection, schedule: Q01DX009 (ip), vehicle: saline); 0 of 6 under setting [1]; 0 of 6 (dose: 200.0 mg/kg/injection, schedule: Q01DX009 (ip), vehicle: saline).

(Values after PubChem BioAssay AID328 (DTP/NCI, 2004).)
